From patent US20250136937A1, “NOVEL TUMOR-SPECIFIC ANTIGENS FOR COLORECTAL CANCER AND USES THEREOF” (UNIVERSITÉ DE MONTRÉAL, priority 2021, published 2025)
For part of these data: The expression values are mRNA levels of the gene; the protein chain is shown to identify it.

How the values were obtained:
Parameters in all cases: species or system human
[1] = test system: cancer vs matched NAT / pooled mTEC; experiment: k-mer expression of peptide coding sequences in cancer vs normal (KPHM), TSA identification pipeline; conditions: for MCS expression in NAT (reason for exclusion): matched NAT of the samples named in Table 7A
Text: Identification of TSA candidates. TSA candidates were identified through a stringent TSA identification pipeline. First, MAPs underwent peptide classification in which the peptide sequence accessions were retrieved from the protein database and used to extract the nucleotide sequences of each peptide. RNA-Seq data from each cancer and normal samples were transformed into 24-nucleotide-long k-mer databases with Jellyfish 2.2.3 (using the -C option) and used to query each TSA candidate coding sequence's 24-nucleotide-long k-mer set. The number of reads fully overlapping a given peptide-coding sequence was estimated using the k-mer set's minimum occurrence (kmin), as in general, one k-mer always originates from a single RNA-Seq read. This kmin value was then transformed into several k-mers detected per 10^8 reads sequenced (kphm) using the following formula: kphm=(kmin×108) rtot, with rtot representing the total number of reads sequenced in a given RNA-Seq experiment. Peptides were kept only if their RNA coding sequences were expressed at least 10-fold higher in cancer than in normal (pooled mTEC samples for cell lines, matched NAT for tissues), and expressed <2 KPHM in normal. Subsequent filtering removed any peptides with indistinguishable isoleucine/leucine variants; a peptide with an IL variant was kept only if the most expressed variant met the above-mentioned criteria. The MCSs of the remaining peptides were quantified in RNA-seq data as described above and were kept only if their expression was <8.55 RPHM in mTECs and other normal tissues (GTEx). Genomic localization for each peptide was assigned by mapping reads containing each MCS to the reference genome (GRCh38.99) using BLAT (https://genome.ucsc.edu/cgi-bin/hgBlat, Kent W J. BLAT—the BLAST-like alignment tool. Genome Res. 2002 April; 12 (4): 656-64. PMID: 11932250). Peptides were excluded if the genomic localization was unclear or if they mapped to a hypervariable region (HLA, Ig, or T cell receptor (TCR) genes). Finally, the MS/MS spectra of the remaining candidates were manually validated. Peptides were classified as mTSAs if their amino acid sequence was different from the reference, and if the mutation was not a known germline polymorphism. Peptides were classified as aeTSAs if they were overexpressed ≥10-fold in tumor compared to normal and ≤0.2 KPHM in mTECs (and NAT in the case of tissues) and as TAAs if they were overexpressed ≥10-fold in cancer but the expression in mTECs and/or NAT was >0.2 KPHM. Ultimately, the transcript of origin of each TSA/TAA was attributed by selecting the most highly expressed peptide-overlapping transcript from the kallisto quantification file (see Database Generation section).
Following the identification of over 30,000 unique MAPs, peptide coding sequences were filtered to select those overexpressed at least 10-fold in cancer and expressed <2rphm in pooled mTEC samples or matched NAT, for cell lines and primary samples, respectively. […] The MAP coding sequences in RNA-data were then quantified, and only those that were expressed less than 8.55rphm in mTECs and other normal tissues (GTEx) were kept. Following manual validation of the remaining peptides, peptides were classified as aberrantly expressed TSAs (aeTSAs) if they were overexpressed at least 10-fold in tumor and were expressed <0.2kphm in mTECs (and NAT in the case of tissues). […]

[2] = test system: healthy tissues (GTEx) and mTECs; experiment: Quantification of MAP coding sequences in RNA-Seq data of normal tissues (GTEx, mTEC), RPHM
Text: Quantification of MAP coding sequences in RNA-Seq data. MAP coding sequences (MCSs) were quantified in RNA-seq data as previously described (31). Briefly, MCSs were reverse translated into all possible nucleotide sequences with an in-house python script (deposited on Zenodo at DOI: 3739257). The nucleotide sequences were then mapped onto the genome with GSNAP (32) to determine all possible genomic locations able to code for a given MAP. MCSs were also mapped onto the transcriptome to account for MAPs overlapping splice sites, and portions of the transcriptome corresponding to these MAPs were then also mapped onto the reference genome with GSNAP. For MAPs of interest, genomic alignment of all reads containing the MCS was performed. […] The number of reads containing the MCSs at their respective genomic locations in each desired RNA-Seq sample (such as CRC and NAT, GTEx, or TCGA samples), aligned on the reference genome with STAR, was summed. Lastly, all read counts for a given MAP were summed and normalized on the total number of reads sequenced in each sample of interest to obtain a reads-per-hundred-million (RPHM) count.
Identification of TSA candidates. […] The number of reads fully overlapping a given peptide-coding sequence was estimated using the k-mer set's minimum occurrence (kmin), as in general, one k-mer always originates from a single RNA-Seq read. […]

[3] = test system: NAT and CRC tissue samples; experiment: Relative quantification of MAPs by TMT SPS-MS3 with spiked synthetic peptides, CRC vs matched NAT; conditions: sample S2
Protocol: TMT labeling. MAP extracts were resuspended in 200 mM Hepes buffer pH 8.1. 50 μg of TMT reagent (Thermo Fisher Scientific) in anhydrous acetonitrile was added to samples as follows: CRC cell line replicates were labeled with TMT6plex (lot #UG287166) channels TMT6-126-129; Tissue samples were labeled with TMT10plex (lot #UH285228) −126 (NAT) and −127N (tumor). Samples were gently vortexed and reacted at room temperature for 1.5 hours. Samples were then quenched with 50% hydroxylamine for 30 minutes at room temperature, then were diluted with 4% FA/H2O. CRC cell line replicates and individual NAT-tumor pairs were combined. Samples were then desalted on homemade C18 membrane (Empore) columns and stored at −20° C. until injection. To quantify MAPs of interest in primary tissue samples, synthetic peptides at concentrations of 0.75 to 192 fmoles were labeled with TMT 10plex channels −128N, −128C, −129N, −129C, −130N, −130C, −131, while the NAT and CRC tissues were labeled with −126 and 127N, respectively. Note that the channel −127C was left empty to assess contamination between channels.
Relative quantification. To relatively quantify MAPs of interest in primary tissue samples, synthetic peptides at concentrations of 10, 100, or 1000 fmol labeled with TMT 10plex-129N, 130N, and 131N, respectively, were spiked into remaining purified MAPs from NAT and CRC tissue samples labeled with TMT10plex-126 and 127N, respectively. Note that the channel TMT 10plex-127C was left empty to assess contamination. Samples were analyzed with an Orbitrap Fusion Tribrid spectrometer (Thermo Fisher Scientific) in positive ion mode with Nanoflex source at 2.4 kV. For synchronous precursor selection MS3 (SPS-MS3), full MS scans were acquired with a range of 300-1000 m/z, Orbitrap resolution of 120 000, automatic gain control (AGC) of 5.0e5, and a maximum injection time of 50 ms, using an inclusion list for the peptides of interest. A 3s top speed approach for MS2 was used in the ion trap, with an isolation window of 0.4m/z, collision induced dissociation of 35%, a ‘normal’ ion trap scan rate mode, 2.0e4 AGC target, and 50 ms maximum injection time. This was followed by the selection of eight synchronous precursor ions for MS3 acquisition, which was done with a scan range of 110-500 m/z, Orbitrap resolution of 50 000, AGC of 1.0e5, maximum injection time of 300 ms, an isolation window of 2.0m/z, and 65% HCD collision energy. LC-MS instrument was controlled using Xcalibur version 4.4 (Thermo Fisher Scientific, Inc). Error tolerances for precursor mass and fragment ions were set to 10.0 ppm and 0.5 Da, respectively. A non-specific digest mode was used. TMT10plex was set as a fixed PTM, and variable modifications included phosphorylation (STY), Oxidation (M), Deamidation (NQ), and TMT10plex STY. For quantification, PSMs were filtered to exclude those with contamination in the TMT10plex-127C channel, and to select those within the 70th intensity percentile. MS2 precursor profiles and intensity profiles of all relevant channels were manually inspected to select peptides for quantification. Intensity ratios for each peptide were calculated using the average TMT10plex-127N and TMT10plex-126 intensities of good quality PSMs.
Experimental Design and Statistical Rationale. To effectively elucidate the MHC I immunopeptidome of colorectal cancer, 4 CRC cell lines were selected and 6 samples from human subjects consisting of both matched tumor and normal adjacent tissue (NAT) were acquired. […] Since no matched samples were available for cell lines, a pool of 6 mTEC samples was used in the creation of global cancer databases, to obtain a wide berth of approximate normal RNA expression. […] For t-tests, f-tests were performed to determine whether the dataset had significant variation; if yes, then the t-test assuming variation was used, and otherwise the t-test assuming no variation was used. […]

“RLAEPSQMLK (listed as Homo sapiens) [Loffler et al. 2018 vaccine candidate requiring further validation, A*03; excluded here]” was tested, and the “MCS expression in NAT (reason for exclusion)” value (shortened to “MCS expression in NAT”) [1] was “expression > 2 KPHM”.
In the case of “SVLTQPPSV (listed as Homo sapiens) [excluded here]”, the “MCS expression in NAT” value [1] is reported as “expression > 2 KPHM”.
In the case of “SPKATGVFTTL (listed as Homo sapiens) [Loffler et al. 2018 vaccine candidate requiring further validation, B*07; excluded here]”, the “MCS expression in NAT” value [1] is reported as “expression > 2 KPHM”.
For “APTPARPVL (listed as Homo sapiens) [Loffler et al. 2018 vaccine candidate requiring further validation, B*07; excluded here, reference compound]”, the “MCS expression in mTEC (reason for exclusion)” value ([2]; mTEC, peptide found in sample S1) was “expression 8.55 RPHM”.
In the case of “YRNSYEIEY (listed as Homo sapiens) [Loffler et al. 2018 vaccine candidate, C*07; excluded here]”, the “MCS expression in NAT” value [1] is reported as “expression > 2 KPHM”.
For “RLASRPLLL (listed as Homo sapiens) [Loffler et al. 2018 vaccine candidate, B*07; excluded here]”, the “FC between cancer and NAT (reason for exclusion)” value ([1]; sample S5) was “FC < 10”.
With “RIGGVGVEK (listed as Homo sapiens) [aeTSA, LY6G6F-LY6G6D exon frameshift, S2; predicted HLA-A*03:02]” the “mean expression of the peptide-coding sequence in testis (GTEx)” value ([2]; testis, threshold 8.55 rphm) was “above 8.55 rphm”, the Endogenous sample ratio ([3]; CRC vs matched NAT) was 1.965 and the “SPS-MS3 ratio (127N/126)” value ([3]; TMT127N (CRC) / TMT126 (NAT)) was 6.740.
